According to paper PMC12666673:
These are yes or no findings as the source states them, for the method shown. Binding seen in cells or lysates may run through a third protein. A yes stands for co-enrichment or nearness to the bait. Other partners may have been found.

Amino acid sequences for entries named in this document (tags omitted).
UniProt P07355: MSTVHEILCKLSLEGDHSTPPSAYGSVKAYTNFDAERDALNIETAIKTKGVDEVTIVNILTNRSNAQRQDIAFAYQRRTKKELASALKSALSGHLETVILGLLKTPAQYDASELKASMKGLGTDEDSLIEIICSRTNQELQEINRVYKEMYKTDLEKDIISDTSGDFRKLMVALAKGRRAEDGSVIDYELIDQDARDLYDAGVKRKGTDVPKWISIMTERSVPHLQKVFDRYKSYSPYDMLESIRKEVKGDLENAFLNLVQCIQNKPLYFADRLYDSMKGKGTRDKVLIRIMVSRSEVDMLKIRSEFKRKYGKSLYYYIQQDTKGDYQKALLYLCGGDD

Target: T1, V-set and immunoglobulin domain containing 2 (VSIG2) (human (endogenous in AGS)) (UniProt Q96IQ7)
T1 sequence: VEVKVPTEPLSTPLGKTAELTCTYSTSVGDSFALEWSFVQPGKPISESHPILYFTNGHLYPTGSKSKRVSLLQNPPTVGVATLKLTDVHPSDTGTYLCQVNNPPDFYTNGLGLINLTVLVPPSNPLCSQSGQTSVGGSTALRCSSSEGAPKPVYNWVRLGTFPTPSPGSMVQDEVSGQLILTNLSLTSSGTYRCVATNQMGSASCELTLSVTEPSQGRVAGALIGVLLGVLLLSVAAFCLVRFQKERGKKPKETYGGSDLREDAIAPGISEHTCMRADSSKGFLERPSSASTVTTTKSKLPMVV
Assay: affinity purification with mass spectrometry; AGS cell protein precipitated with the VSIG2 antibody, then LC-MS/MS

- binding: binds
Substance: ANXA2 (from UniProt P07355 1-339)
